Laboratory results as given in patent US20170327576A1.
These are yes or no findings as the source states them, for the method shown. Some results given as binding are weak or reduced against the parent protein; the word gives no strength.

Assays:
[1] = target: T1, non-functional P2X7 receptor on live cancer cells or tumour tissue (human) (UniProt Q99572); assay: immunohistochemistry, human melanoma tissue
T1 sequence (chain, cis isomerisation at Pro210 in one or more monomers (the filing's definition)): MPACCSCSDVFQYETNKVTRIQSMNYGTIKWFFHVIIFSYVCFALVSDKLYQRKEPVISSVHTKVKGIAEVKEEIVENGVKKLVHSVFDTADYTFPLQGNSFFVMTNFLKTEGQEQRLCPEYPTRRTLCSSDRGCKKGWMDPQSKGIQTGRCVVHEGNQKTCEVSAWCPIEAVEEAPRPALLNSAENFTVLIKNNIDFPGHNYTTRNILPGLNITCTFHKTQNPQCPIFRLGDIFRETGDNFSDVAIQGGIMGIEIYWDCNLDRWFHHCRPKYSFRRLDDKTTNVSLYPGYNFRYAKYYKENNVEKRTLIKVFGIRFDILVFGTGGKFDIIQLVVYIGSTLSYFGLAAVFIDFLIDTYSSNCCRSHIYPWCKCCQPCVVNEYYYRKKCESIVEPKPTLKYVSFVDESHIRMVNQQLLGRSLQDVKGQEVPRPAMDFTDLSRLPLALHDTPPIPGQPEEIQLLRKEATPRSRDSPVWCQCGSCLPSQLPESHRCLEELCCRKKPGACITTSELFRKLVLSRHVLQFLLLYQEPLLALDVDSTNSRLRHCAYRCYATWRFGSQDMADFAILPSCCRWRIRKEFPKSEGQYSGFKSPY

[2] = target: T1, non-functional P2X7 receptor on live cancer cells or tumour tissue (human); assay: immunohistochemistry, Myc-tagged dAb
[3] = target: T1, non-functional P2X7 receptor on live cancer cells or tumour tissue (human); assay: flow cytometry, live PC3 cells

binding [1]: binds | binding [2]: binds | binding [3]: binds
B1: PEP2-4 dAb (protein)
VH: EVQLLESGGGLVQPGGSLRLSCAASGFTFGMYNMSWVRQAPGKGLEWVSSINATGGRTYYADSVKGRFTISRDNSKNTLYLQMNSLRAEDTAVYYCAKFNGFSHRQYNFDYWGQGTLVTVSS
